Measurements taken from patent publication US7192722B2, “Phenethanolamine-derived haptens, immunogens, antibodies and conjugates” (Randox Laboratories, priority 2004, dated 2007).

How the values were obtained:
[1] = system: IgG fraction of the antiserum raised to immunogen D (hapten D-BSA); test: Competitive ELISA for isoxsuprine, Example 24: antiserum to immunogen D, conjugate D (hapten D-HRP); format: binding
[2] = system: IgG fraction of the antiserum raised to immunogen A (hapten A-BSA); test: Competitive ELISA for ractopamine, Example 22 a): antiserum to immunogen A, conjugate A (hapten A-HRP); format: binding, sheep
Experimental: (§1) An aqueous solution of each immunogen was formulated with Freund's Complete Adjuvant (FCA) to form an emulsion consisting of 2 mg/ml immunogen in 50% (v/v) FCA. Three sheep were immunised with this emulsion (1° immunisation), 0.25 ml being subcutaneously injected at each of four sites in the flank of each animal. Subsequent immunizations (boosts) contained 1 mg/ml immunogen. All boosts were emulsified in 50% (v/v) Freund's Incomplete Adjuvant (FIA) and were administered in the same manner as the 1° immunisation, at monthly intervals for 1 year. Blood sampling took place 7 to 14 days after each boost. Each sample was processed to produce antiserum, which was further purified by caprylic acid and ammonium sulfate precipitation to yield an immunoglobulin G (IgG) fraction.
The appropriate antibody coating dilution was determined using standard ELISA checkerboard techniques. The plate was incubated for 2 hours at 37° C., washed 4 times with Tris buffered saline containing Tween 20 (TBST) and tapped dry. Standard solutions of ractopamine were prepared in TBST at 0, 0.05, 0.1, 0.5, 1, and 5 ng/ml, and 50 μl of each was added to the appropriate wells. […] The appropriate dilution of conjugate was also determined using standard ELISA checkerboard techniques. The plate was incubated at 37° C. for 2 hours. Excess unbound conjugate was removed by washing 6 times over a 10 minute period with TBST. 125 μl of tetramethylbenzidine (TMB) substrate solution was added to each well of the plate that was then incubated for 15 to 20 minutes in the dark at room temperature. The reaction was terminated by addition of 125 μl 0.2M H2SO4 to each well. The absorbance was then measured at 450 nm using a microtiter plate reader.
(§2) Employing each series of standards in the ractopamine competitive ELISAs, calibration curves were generated and these were used to determine the cross-reactivity of each immunoassay with these substances.

[3] = system: IgG fraction of the antiserum raised to immunogen C (hapten C-BSA); test: Competitive ELISA for ractopamine, Example 22 b): antiserum to immunogen C, conjugate C (hapten C-HRP); format: binding, sheep
Experimental: as §1
The same definitions apply for A450, B, B0 and IC50.
as §2

[4] = system: IgG fraction of the antiserum raised to immunogen E (hapten E-BSA); test: Competitive ELISA for ritodrine, Example 25: antiserum to immunogen E, conjugate E (hapten E-HRP); format: binding

SMILES: CC(COc1ccccc1)NC(C)C(O)c1ccc(O)cc1 (stereo not drawn) [Isoxsuprine]
- A450 ([1]; isoxsuprine 0.5 ng/ml): 0.743
- A450 ([1]; isoxsuprine 1 ng/ml): 0.399
- A450 ([1]; isoxsuprine 5 ng/ml): 0.158
- A450 ([1]; isoxsuprine 10 ng/ml): 0.115
- A450 ([1]; isoxsuprine 50 ng/ml): 0.036
- A450 ([1]; isoxsuprine 100 ng/ml): 0.032
- A450 ([1]; isoxsuprine 200 ng/ml): 0.022

SMILES: CC(CCc1ccc(O)cc1)NCC(O)c1ccc(O)cc1 (stereo not drawn) [Ractopamine]
- A450 ([2]; ractopamine 0.05 ng/ml): 1.276
- A450 ([2]; ractopamine 0.1 ng/ml): 1.181
- A450 ([2]; ractopamine 0.5 ng/ml): 0.566
- A450 ([2]; ractopamine 1 ng/ml): 0.404
- A450 ([2]; ractopamine 5 ng/ml): 0.151
- A450 ([3]; ractopamine 0.025 ng/ml): 1.683
- A450 ([3]; ractopamine 0.1 ng/ml): 1.302
- A450 ([3]; ractopamine 0.25 ng/ml): 0.918
- A450 ([3]; ractopamine 0.5 ng/ml): 0.68
- A450 ([3]; ractopamine 1 ng/ml): 0.469

SMILES: CC(NCCc1ccc(O)cc1)C(O)c1ccc(O)cc1 (stereo not drawn) [Ritodrine]
- A450 ([4]; ritodrine 1 ng/ml): 1.791
- A450 ([4]; ritodrine 5 ng/ml): 1.602
- A450 ([4]; ritodrine 10 ng/ml): 1.562
- A450 ([4]; ritodrine 50 ng/ml): 1.260
- A450 ([4]; ritodrine 100 ng/ml): 1.088
- A450 ([4]; ritodrine 500 ng/ml): 0.584
- A450 ([4]; ritodrine 1000 ng/ml): 0.440
